Some entries share one result that the patent states for a list of compounds.
Tests used:
Type in all cases: in vivo
[1] = tested on: cotton melon aphid (Aphis gossypii (Glover)); assay: Test D: control of cotton melon aphid, spray on cotton plant; settings: assessed after 6 days
Procedure: (§1) Test compounds were formulated using a solution containing 10% acetone, 90% water and 300 ppm X-77® Spreader Lo-Foam Formula non-ionic surfactant containing alkylarylpolyoxyethylene, free fatty acids, glycols and isopropanol (Loveland Industries, Inc. Greeley, Colo., USA). The formulated compounds were applied in 1 mL of liquid through a SUJ2 atomizer nozzle with ⅛ JJ custom body (Spraying Systems Co. Wheaton, Ill., USA) positioned 1.27 cm (0.5 inches) above the top of each test unit. Test compounds were sprayed at the rates indicated, and each test was replicated three times.
For evaluating control of cotton melon aphid (Aphis gossypii (Glover)) through contact and/or systemic means, the test unit consisted of a small open container with a 6-7-day-old cotton plant inside. This was pre-infested with 30-40 insects on a piece of leaf according to the cut-leaf method, and the soil of the test unit was covered with a layer of sand.
Test compounds were formulated and sprayed at 250 and/or 50 ppm. After spraying, the test units were maintained in a growth chamber for 6 days at 19° C. and 70% relative humidity. Each test unit was then visually assessed for insect mortality.

[2] = tested on: green peach aphid (Myzus persicae (Sulzer)); assay: Test C: control of green peach aphid, spray on radish plant; settings: assessed after 6 days
Procedure: as §1
For evaluating control of green peach aphid (Myzus persicae (Sulzer)) through contact and/or systemic means, the test unit consisted of a small open container with a 12-15-day-old radish plant inside. This was pre-infested by placing on a leaf of the test plant 30-40 aphids on a piece of leaf excised from a culture plant (cut-leaf method). The aphids moved onto the test plant as the leaf piece desiccated. After pre-infestation, the soil of the test unit was covered with a layer of sand.
Test compounds were formulated and sprayed at 250 and/or 50 ppm. After spraying of the formulated test compound, each test unit was allowed to dry for 1 hour and then a black, screened cap was placed on top. The test units were held for 6 days in a growth chamber at 19-21° C. and 50-70% relative humidity. Each test unit was then visually assessed for insect mortality.

[3] = tested on: potato leafhopper (Empoasca fabae (Harris)); assay: Test B: control of potato leafhopper, spray on Soleil bean plant; settings: sprayed at 250 ppm; adults on Soleil bean plant; assessed after 6 days
[4] = tested on: sweetpotato whitefly (Bemisia tabaci (Gennadius)); assay: Test E: control of sweetpotato whitefly, spray on cotton plant; settings: sprayed at 250 ppm; eggs on cotton plant; assessed after 13 days
Procedure: as §1
For evaluating control of the sweetpotato whitefly (Bemisia tabaci (Gennadius)) through contact and/or systemic means, the test unit consisted of a small open container with a 12-14-day-old cotton plant inside. Prior to the spray application, both cotyledons were removed from the plant, leaving one true leaf for the assay. Adult whiteflies were allowed to lay eggs on the plant and then were removed from the test unit. Cotton plants infested with at least 15 eggs were submitted to the test for spraying.
Test compounds were formulated and sprayed at 250 and/or 50 ppm. After spraying, the test units were allowed to dry for 1 hour. The cylinders were then removed, and the units were taken to a growth chamber and held for 13 days at 28° C. and 50-70% relative humidity. Each test unit was then visually assessed for insect mortality.

[5] = tested on: Western Flower Thrips (Frankliniellla occidentalis (Pergande)); assay: Test F: control of Western Flower Thrips, spray on Soleil bean plant; settings: sprayed at 50 ppm; adult thrips on Soleil bean plant; held for 6 days
Procedure: For evaluating control of the Western Flower Thrips (Frankliniellla occidentalis (Pergande)) through contact and/or systemic means, the test unit consisted of a small open container with a 5-7-day-old Soleil bean plant inside.
Test compounds were formulated and sprayed at 250 and/or 50 ppm. After spraying, the test units were allowed to dry for 1 hour, and then 22-27 adult thrips were added to each unit. A black, screened cap was placed on top, and the test units were held for 6 days at 25° C. and 45-55% relative humidity.

Row | SMILES | mortality ([1]; sprayed at 50 ppm) | mortality ([2]; sprayed at 50 ppm) | mortality [4] | further results
1 | COC(=O)C(C)(C)NC(=O)C(C)(C)NC(=O)c1cccc2nn(-c3cccnc3)cc12 [Compound 1] | at least 80% |  |  | 
2 | CN(C)C(=O)C(C)(C)NC(=O)C(C)(C)NC(=O)c1cccc2nn(-c3cccnc3)cc12 [Compound 2] | at least 80% | at least 80% |  | mortality ([2]; sprayed at 250 ppm): at least 80%
3 | CCC(NC(=O)C(C)(C)NC(=O)c1cccc2nn(-c3cccnc3)cc12)C(=O)OC (centres unmarked) [Compound 5] | at least 80% |  |  | 
4 | COC(=O)C1(NC(=O)C(C)(C)NC(=O)c2cccc3nn(-c4cccnc4)cc23)CCCC1 [Compound 6] |  | at least 80% |  | 
5 | COC(=O)C1(NC(=O)C(C)(C)NC(=O)c2cccc3nn(-c4cccnc4)cc23)CC1 [Compound 7] | at least 80% | at least 80% |  | mortality ([1]; sprayed at 250 ppm): at least 80%
6 | CC(C)(NC(=O)c1cccc2nn(-c3cccnc3)cc12)C(=O)NCC1CC1 [Compound 8] | at least 80% | at least 80% |  | mortality ([2]; sprayed at 250 ppm): at least 80%; mortality [3]: at least 80%
7 | CC(NC(=O)C(C)(C)NC(=O)c1cccc2nn(-c3cccnc3)cc12)C1CC1 (centres unmarked) [Compound 9] | at least 80% | at least 80% |  | 
8 | C#CCNC(=O)C(C)(C)NC(=O)c1cccc2nn(-c3cccnc3)cc12 [Compound 11] | at least 80% | at least 80% |  | mortality ([2]; sprayed at 250 ppm): at least 80%
9 | CC(C#N)NC(=O)C(C)(C)NC(=O)c1cccc2nn(-c3cccnc3)cc12 (centres unmarked) [Compound 12] | at least 80% | at least 80% | at least 50% | mortality ([2]; sprayed at 250 ppm): at least 80%
10 | CC(C)(NC(=O)c1cccc2nn(-c3cccnc3)cc12)C(=O)NC1(C#N)CC1 [Compound 13] | at least 80% | at least 80% |  | 
11 | C=CCNC(=O)C(C)(C)NC(=O)c1cccc2nn(-c3cccnc3)cc12 [Compound 14] | at least 80% | at least 80% |  | mortality [3]: at least 80%
12 | COCC(C)NC(=O)C(C)(C)NC(=O)c1cccc2nn(-c3cccnc3)cc12 (centres unmarked) [Compound 15] | at least 80% | at least 80% |  | 
13 | CN(C)C(=O)CNC(=O)C(C)(C)NC(=O)c1cccc2nn(-c3cccnc3)cc12 [Compound 17] | at least 80% |  |  | 
14 | CNC(=O)C(C)NC(=O)C(C)(C)NC(=O)c1cccc2nn(-c3cccnc3)cc12 (centres unmarked) [Compound 18] | at least 80% |  |  | 
15 | COCCNC(=O)C(C)(C)NC(=O)c1cccc2nn(-c3cccnc3)cc12 [Compound 21] | at least 80% | at least 80% |  | mortality ([2]; sprayed at 250 ppm): at least 80%
16 | COC(CNC(=O)C(C)(C)NC(=O)c1cccc2nn(-c3cccnc3)cc12)OC [Compound 22] | at least 80% |  |  | mortality [3]: at least 80%
17 | CC(C)(NC(=O)c1cccc2nn(-c3cccnc3)cc12)C(=O)NCc1ccccn1 [Compound 26] | at least 80% | at least 80% | at least 50% | mortality ([1]; sprayed at 250 ppm): at least 80%

Row | SMILES | mortality ([1]; sprayed at 50 ppm) | mortality ([2]; sprayed at 50 ppm) | mortality [4] | further results
18 | Cc1cnc(CNC(=O)C(C)(C)NC(=O)c2cccc3nn(-c4cccnc4)cc23)cn1 [Compound 29] |  | at least 80% |  | 
19 | CNC(=O)C(C)(C)NC(=O)C(C)(C)NC(=O)c1cccc2nn(-c3cccnc3)cc12 [Compound 30] |  | at least 80% | at least 50% | 
20 | C#CC(C)(C)NC(=O)C(C)(C)NC(=O)c1cccc2nn(-c3cccnc3)cc12 [Compound 31] | at least 80% | at least 80% |  | 
21 | CC(C)(C#N)CNC(=O)C(C)(C)NC(=O)c1cccc2nn(-c3cccnc3)cc12 [Compound 32] |  |  | at least 50% | 
22 | CC(C)(NC(=O)c1cccc2nn(-c3cccnc3)cc12)C(=O)NCc1cccs1 [Compound 33] |  |  | at least 50% | 
23 | CC(C)(NC(=O)c1cccc2nn(-c3cccnc3)cc12)C(=O)NCC#N [Compound 34] |  | at least 80% |  | 
24 | CC(C[S+](C)[O-])NC(=O)C(C)(C)NC(=O)c1cccc2nn(-c3cccnc3)cc12 (centres unmarked) [Compound 37] |  |  | at least 50% | 
25 | CC(C)(NC(=O)c1cccc2nn(-c3cccnc3)cc12)C(=O)NC1COC1 [Compound 38] | at least 80% | at least 80% | at least 50% | 
26 | C#CC(C)NC(=O)C(C)(C)NC(=O)c1cccc2nn(-c3cccnc3)cc12 (centres unmarked) [Compound 39] |  | at least 80% | at least 50% | mortality ([1]; sprayed at 250 ppm): at least 80%; mortality ([2]; sprayed at 250 ppm): at least 80%
27 | CC(C)(NC(=O)c1cccc2nn(-c3cccnc3)cc12)C(=O)NC1CCCCNC1=O (centres unmarked) [Compound 40] |  |  | at least 50% | 
28 | CC(C)(NC(=O)c1cccc2nn(-c3cccnc3)cc12)C(=O)NCc1ncccn1 [Compound 41] | at least 80% | at least 80% |  | mortality ([1]; sprayed at 250 ppm): at least 80%; mortality ([2]; sprayed at 250 ppm): at least 80%; mortality [3]: at least 80%
29 | CC(C)(NC(=O)c1cccc2nn(-c3cccnc3)cc12)C(=O)NC1CCC1 [Compound 43] | at least 80% | at least 80% |  | mortality [5]: at least 50%
30 | CCNC(=O)C(C)(C)NC(=O)C(C)(C)NC(=O)c1cccc2nn(-c3cccnc3)cc12 [Compound 46] | at least 80% |  |  | 
31 | CON(C)C(=O)C(C)(C)NC(=O)c1cccc2nn(-c3cccnc3)cc12 [Compound 47] | at least 80% | at least 80% | at least 50% | mortality ([2]; sprayed at 250 ppm): at least 80%; mortality [5]: at least 50%
32 | CONC(=O)C(C)(C)NC(=O)c1cccc2nn(-c3cccnc3)cc12 [Compound 48] | at least 80% | at least 80% | at least 50% | mortality ([2]; sprayed at 250 ppm): at least 80%; mortality [5]: at least 50%
33 | CC(C)(NC(=O)c1cccc2nn(-c3cccnc3)cc12)C(=O)NC(C)(C)C(=O)N1CCC1 [Compound 49] | at least 80% |  |  | 

— patent US10683276B2, “Heterocycle-substituted bicyclic azole pesticides” (FMC Corporation, priority 2015, dated 2020)
